{
  "sequences": {"note": "The chains behind the UniProt entries cited, without tags or fusion partners. Residues count along the entry.", "UniProt P19493, 22-902 isoform 2 limits assumed": "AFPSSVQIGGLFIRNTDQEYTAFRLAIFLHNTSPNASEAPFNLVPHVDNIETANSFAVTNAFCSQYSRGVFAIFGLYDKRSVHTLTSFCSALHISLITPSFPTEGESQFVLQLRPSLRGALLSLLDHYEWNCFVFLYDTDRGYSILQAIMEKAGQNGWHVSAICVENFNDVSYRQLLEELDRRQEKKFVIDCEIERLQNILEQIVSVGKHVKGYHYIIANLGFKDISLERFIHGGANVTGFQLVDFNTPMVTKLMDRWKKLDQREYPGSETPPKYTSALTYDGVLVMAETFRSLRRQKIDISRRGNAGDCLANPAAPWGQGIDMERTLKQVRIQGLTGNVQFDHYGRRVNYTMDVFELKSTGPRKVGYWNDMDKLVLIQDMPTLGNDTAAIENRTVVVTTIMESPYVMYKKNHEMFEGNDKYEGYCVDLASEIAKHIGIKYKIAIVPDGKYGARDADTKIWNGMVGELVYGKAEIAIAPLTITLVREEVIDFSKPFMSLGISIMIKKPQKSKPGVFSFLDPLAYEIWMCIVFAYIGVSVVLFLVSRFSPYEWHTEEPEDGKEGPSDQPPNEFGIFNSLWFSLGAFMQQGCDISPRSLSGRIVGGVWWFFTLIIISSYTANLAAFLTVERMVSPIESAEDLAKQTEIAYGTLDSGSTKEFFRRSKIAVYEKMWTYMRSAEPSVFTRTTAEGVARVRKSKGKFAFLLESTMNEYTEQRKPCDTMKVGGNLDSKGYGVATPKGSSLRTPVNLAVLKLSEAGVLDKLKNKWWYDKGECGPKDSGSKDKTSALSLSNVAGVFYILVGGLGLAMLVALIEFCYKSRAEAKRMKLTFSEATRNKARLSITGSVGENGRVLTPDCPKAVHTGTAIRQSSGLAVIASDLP", "UniProt P19492, 23-888 isoform 2 limits assumed": "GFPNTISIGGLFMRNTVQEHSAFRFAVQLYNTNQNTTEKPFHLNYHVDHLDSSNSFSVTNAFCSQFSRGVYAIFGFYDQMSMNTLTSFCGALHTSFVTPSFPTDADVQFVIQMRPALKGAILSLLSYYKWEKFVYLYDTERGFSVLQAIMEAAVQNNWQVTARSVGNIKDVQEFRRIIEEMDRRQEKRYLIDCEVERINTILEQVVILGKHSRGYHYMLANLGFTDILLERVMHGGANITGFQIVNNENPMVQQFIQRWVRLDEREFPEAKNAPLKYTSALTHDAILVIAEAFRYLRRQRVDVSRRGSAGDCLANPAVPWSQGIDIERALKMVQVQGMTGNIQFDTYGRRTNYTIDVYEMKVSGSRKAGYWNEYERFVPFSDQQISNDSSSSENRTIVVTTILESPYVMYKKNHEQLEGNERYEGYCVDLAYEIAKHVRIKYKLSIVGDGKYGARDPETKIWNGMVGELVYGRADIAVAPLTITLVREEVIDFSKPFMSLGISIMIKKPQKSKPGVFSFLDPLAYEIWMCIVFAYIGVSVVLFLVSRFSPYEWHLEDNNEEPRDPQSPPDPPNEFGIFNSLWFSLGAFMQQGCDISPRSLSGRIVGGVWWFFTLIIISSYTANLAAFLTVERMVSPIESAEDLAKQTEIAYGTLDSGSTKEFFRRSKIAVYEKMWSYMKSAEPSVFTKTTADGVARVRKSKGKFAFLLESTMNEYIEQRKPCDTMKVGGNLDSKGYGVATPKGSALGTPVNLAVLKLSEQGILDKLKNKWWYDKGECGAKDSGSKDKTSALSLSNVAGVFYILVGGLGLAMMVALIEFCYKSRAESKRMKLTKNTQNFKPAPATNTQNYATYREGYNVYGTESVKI", "UniProt P19490, 19-907 limits assumed": "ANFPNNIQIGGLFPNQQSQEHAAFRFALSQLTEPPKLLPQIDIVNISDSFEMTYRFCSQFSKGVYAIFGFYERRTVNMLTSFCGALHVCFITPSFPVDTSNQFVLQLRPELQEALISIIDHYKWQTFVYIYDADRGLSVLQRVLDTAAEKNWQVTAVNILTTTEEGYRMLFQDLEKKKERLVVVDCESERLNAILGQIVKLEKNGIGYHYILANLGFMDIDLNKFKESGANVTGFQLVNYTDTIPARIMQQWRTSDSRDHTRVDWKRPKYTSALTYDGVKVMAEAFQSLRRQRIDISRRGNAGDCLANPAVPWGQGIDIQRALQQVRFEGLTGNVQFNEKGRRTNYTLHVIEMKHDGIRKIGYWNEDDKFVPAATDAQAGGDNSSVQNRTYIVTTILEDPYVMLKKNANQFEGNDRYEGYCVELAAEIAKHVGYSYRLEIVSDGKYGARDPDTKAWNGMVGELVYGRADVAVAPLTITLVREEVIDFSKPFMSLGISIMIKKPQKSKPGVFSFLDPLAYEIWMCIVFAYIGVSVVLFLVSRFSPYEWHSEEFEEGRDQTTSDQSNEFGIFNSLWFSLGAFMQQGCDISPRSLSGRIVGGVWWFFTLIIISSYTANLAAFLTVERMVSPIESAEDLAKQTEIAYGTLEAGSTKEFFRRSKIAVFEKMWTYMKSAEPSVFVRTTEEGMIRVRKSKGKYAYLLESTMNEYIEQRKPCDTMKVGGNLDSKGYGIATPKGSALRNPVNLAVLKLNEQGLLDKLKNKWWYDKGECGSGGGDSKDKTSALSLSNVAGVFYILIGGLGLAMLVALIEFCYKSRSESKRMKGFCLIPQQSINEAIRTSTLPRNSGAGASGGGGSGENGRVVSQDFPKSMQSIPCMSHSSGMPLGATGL", "UniProt P19490, 19-907 isoform 2 limits assumed": "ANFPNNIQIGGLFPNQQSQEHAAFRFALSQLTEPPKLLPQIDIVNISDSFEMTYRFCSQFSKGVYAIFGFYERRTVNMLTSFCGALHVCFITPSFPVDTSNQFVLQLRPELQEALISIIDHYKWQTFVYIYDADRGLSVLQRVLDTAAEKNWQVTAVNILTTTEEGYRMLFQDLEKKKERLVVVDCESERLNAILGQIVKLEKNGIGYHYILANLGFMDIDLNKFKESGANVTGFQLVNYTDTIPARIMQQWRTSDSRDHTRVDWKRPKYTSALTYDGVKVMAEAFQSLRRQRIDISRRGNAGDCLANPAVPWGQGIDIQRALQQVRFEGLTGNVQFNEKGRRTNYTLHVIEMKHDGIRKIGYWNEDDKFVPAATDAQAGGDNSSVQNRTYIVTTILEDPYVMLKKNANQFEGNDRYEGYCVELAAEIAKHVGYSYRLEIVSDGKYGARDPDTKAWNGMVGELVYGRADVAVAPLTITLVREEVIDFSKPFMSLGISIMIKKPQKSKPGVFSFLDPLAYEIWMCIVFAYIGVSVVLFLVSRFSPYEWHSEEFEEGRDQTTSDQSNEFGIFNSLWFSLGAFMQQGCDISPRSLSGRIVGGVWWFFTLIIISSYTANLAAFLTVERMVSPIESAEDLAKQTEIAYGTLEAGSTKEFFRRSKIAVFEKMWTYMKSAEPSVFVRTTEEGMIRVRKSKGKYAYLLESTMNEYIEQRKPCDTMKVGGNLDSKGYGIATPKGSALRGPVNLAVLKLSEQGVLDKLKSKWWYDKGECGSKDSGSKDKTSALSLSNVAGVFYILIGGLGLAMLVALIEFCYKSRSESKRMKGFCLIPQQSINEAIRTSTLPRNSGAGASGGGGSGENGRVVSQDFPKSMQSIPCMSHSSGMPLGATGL", "UniProt A7XY94, 25-1448 limits assumed": "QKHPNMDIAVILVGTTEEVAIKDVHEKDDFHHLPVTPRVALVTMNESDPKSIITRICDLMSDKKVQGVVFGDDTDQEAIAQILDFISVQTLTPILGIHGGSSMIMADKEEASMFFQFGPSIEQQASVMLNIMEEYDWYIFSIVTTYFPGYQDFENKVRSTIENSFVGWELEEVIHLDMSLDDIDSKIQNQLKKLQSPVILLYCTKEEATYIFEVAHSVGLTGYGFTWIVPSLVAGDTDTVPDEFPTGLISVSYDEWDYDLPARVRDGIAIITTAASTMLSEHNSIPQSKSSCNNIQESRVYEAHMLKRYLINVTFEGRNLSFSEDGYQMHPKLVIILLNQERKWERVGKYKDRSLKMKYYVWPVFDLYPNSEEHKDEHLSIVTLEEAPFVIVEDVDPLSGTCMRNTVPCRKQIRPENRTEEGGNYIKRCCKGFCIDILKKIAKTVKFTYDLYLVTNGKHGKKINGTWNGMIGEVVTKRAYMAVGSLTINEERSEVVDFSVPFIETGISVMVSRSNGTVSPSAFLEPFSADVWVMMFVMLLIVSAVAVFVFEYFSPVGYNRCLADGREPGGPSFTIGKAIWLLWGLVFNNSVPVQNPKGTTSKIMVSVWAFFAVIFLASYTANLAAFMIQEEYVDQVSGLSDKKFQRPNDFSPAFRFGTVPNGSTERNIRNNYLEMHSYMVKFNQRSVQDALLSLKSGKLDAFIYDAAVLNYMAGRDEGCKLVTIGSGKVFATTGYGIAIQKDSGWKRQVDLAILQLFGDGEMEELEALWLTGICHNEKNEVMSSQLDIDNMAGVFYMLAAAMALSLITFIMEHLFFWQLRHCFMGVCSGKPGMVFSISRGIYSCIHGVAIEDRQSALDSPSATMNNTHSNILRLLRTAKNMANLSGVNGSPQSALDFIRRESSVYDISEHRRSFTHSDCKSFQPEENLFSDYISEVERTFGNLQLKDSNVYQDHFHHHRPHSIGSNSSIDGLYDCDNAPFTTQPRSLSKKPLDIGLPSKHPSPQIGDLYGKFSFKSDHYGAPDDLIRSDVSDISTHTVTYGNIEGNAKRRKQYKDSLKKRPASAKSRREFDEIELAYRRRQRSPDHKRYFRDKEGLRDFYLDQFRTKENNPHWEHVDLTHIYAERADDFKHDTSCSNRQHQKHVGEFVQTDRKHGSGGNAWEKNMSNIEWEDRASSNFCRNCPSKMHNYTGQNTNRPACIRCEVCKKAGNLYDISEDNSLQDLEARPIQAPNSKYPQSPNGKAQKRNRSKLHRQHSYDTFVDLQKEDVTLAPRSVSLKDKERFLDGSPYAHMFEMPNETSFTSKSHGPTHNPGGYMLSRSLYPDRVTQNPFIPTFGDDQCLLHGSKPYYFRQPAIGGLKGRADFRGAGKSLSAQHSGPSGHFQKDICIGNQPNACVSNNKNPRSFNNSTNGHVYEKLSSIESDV", "UniProt Q00960, 27-1482 limits assumed": "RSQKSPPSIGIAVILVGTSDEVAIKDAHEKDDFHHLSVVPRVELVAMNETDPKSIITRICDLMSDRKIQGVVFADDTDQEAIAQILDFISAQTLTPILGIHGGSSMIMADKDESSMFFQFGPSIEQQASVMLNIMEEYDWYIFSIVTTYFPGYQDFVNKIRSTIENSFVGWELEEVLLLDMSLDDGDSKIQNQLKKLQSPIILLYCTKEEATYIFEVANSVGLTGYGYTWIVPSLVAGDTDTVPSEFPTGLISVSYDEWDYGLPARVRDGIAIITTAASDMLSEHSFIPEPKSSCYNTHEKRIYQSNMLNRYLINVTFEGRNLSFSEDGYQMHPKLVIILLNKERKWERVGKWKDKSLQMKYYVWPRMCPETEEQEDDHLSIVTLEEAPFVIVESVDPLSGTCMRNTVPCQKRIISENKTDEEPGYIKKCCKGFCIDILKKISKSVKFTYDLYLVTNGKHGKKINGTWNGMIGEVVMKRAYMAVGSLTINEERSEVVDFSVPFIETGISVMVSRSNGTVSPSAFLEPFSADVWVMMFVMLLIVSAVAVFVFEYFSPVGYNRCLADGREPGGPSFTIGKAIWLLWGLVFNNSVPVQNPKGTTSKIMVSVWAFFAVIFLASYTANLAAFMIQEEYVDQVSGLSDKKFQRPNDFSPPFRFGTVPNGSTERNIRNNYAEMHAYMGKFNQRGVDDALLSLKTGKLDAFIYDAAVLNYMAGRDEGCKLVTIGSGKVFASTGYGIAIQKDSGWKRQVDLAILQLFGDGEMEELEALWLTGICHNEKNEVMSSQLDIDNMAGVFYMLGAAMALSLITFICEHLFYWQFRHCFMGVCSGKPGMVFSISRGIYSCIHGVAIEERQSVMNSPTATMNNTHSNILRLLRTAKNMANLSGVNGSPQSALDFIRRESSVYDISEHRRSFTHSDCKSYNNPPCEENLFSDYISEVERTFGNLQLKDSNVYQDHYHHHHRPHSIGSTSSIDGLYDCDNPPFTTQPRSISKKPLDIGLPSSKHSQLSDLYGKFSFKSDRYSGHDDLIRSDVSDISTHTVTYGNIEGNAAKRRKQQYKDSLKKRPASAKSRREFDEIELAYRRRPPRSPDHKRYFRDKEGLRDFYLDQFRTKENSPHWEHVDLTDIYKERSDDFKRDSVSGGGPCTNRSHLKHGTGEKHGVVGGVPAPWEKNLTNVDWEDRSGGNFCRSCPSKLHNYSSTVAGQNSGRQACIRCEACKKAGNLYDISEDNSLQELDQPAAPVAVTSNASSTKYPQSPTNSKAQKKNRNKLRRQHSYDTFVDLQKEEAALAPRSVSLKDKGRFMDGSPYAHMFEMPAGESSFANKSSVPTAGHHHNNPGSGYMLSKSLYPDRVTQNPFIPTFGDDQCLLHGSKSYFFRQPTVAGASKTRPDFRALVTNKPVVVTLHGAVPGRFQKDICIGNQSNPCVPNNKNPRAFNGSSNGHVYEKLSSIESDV"},
  "source": "patent US6750244B2",
  "about": "“Compounds active at a novel site on receptor-operated calcium channels useful for treatment of neurological disorders and diseases” (NPS Pharmaceuticals, Inc., priority 1993, dated 2004)",
  "origin": "cited, not measured here",
  "key": {"rat forebrain membranes": {"system": "rat forebrain membranes", "settings": "cited from earlier work"}, "NMDAR1+NMDAR2C": {"target": "NMDAR1+NMDAR2C (Rattus norvegicus, UniProt P35439+Q00961)", "settings": "cited from earlier work"}, "NMDAR1+NMDAR2A": {"target": "NMDAR1+NMDAR2A (Rattus norvegicus, UniProt P35439+Q00959)", "settings": "cited from earlier work"}, "GluRDi": {"target": "GluRDi (Rattus norvegicus, UniProt P19493)", "settings": "cited from earlier work"}, "NMDA receptors": {"target": "NMDA receptors", "settings": "read-out: IC50, NMDA-induced responses; cited from earlier work"}, "GluRCi": {"target": "GluRCi (Rattus norvegicus, UniProt P19492)", "settings": "cited from earlier work"}, "kainate receptors": {"target": "kainate receptors", "settings": "read-out: IC50, kainate-induced responses; cited from earlier work"}, "GluRBi": {"target": "GluRBi (Rattus norvegicus, UniProt P19491, Q607R)", "settings": "concentrations up to 10 μM; cited from earlier work"}, "GluR1+GluR2": {"target": "GluR1+GluR2 (Rattus norvegicus, UniProt P19490+P19491, Q607R)", "settings": "cited from earlier work"}, "NMDA-induced seizures": {"system": "NMDA-induced seizures", "settings": "subcutaneously (s.c.); cited from earlier work"}, "NMDAR1": {"target": "NMDAR1 (UniProt A7XY94+P35439)", "settings": "cited from earlier work"}, "[1]": {"system": "muscle relaxation and anesthesia", "settings": "intrathecal administration; cited from earlier work"}, "NMDAR1+NMDAR2B": {"target": "NMDAR1+NMDAR2B (Rattus norvegicus, UniProt P35439+Q00960)", "settings": "cited from earlier work"}, "GluRAi": {"target": "GluRAi (Rattus norvegicus, UniProt P19490)", "settings": "cited from earlier work"}},
  "note": "The structures given here were assigned with low confidence; some may be wrong.",
  "data": [
    {"smiles": "N=C(N)NCCC[C@H](N)C(=O)NCCCNCCCNCCCCCNC(=O)[C@H](CC(N)=O)NC(=O)Cc1ccc(O)cc1O", "values": [
      {"measurement": "Kd", "setting": "rat forebrain membranes", "value": 11.2, "unit": "µM"},
      {"measurement": "IC50", "setting": "NMDAR1+NMDAR2C", "value": 460, "unit": "nM"},
      {"measurement": "IC50", "setting": "NMDAR1+NMDAR2A", "value": 9, "unit": "nM"},
      {"measurement": "Ki", "setting": "GluRDi", "value": 430, "unit": "nM"},
      {"measurement": "IC50", "setting": "NMDA receptors", "value": 40, "unit": "nM"},
      {"measurement": "Ki", "setting": "GluRCi", "value": 230, "unit": "nM"},
      {"measurement": "IC50", "setting": "kainate receptors", "value": 70, "unit": "nM"},
      {"measurement": "antagonism", "setting": "GluRBi", "value": "essentially ineffective"},
      {"measurement": "IC50", "setting": "GluR1+GluR2", "value": 300, "unit": "µM"},
      {"measurement": "minimal effective dose", "setting": "NMDA-induced seizures", "value": 32, "unit": "mg/kg"},
      {"measurement": "IC50", "setting": "NMDAR1", "value": 90, "unit": "nM"},
      {"measurement": "muscle relaxation and anesthesia", "setting": "[1]", "value": "produces muscle relaxation and anesthesia"},
      {"measurement": "IC50", "setting": "NMDAR1+NMDAR2B", "value": 2.5, "unit": "nM"},
      {"measurement": "Ki", "setting": "GluRAi", "value": 350, "unit": "nM"}
    ]}
  ]
}
